# Assay results: the supplement of paper PMC8497498
# ± gives the standard deviation of the averaged measurements. This is one part of the list. The data scatter; read single values as rough.
# What was measured:
# Conditions in all cases: 10 µM
# [1] = system: Plasmodium vivax liver stage (primary human hepatocyte culture); test: hypnozoite quantity inhibition (% inhibition); higher = more active against hypnozoites
# [2] = system: Plasmodium vivax liver stage (primary human hepatocyte culture); test: schizont net growth area inhibition (% inhibition); higher = more active against liver schizonts
# [3] = system: primary human hepatocytes; test: hepatic nuclei reduction relative to DMSO (100 - % of negative control); higher = more toxic to hepatocytes
# [4] = assay mode: Prophylactic (treated before or shortly after infection), fixed day 6 post-infection
# [5] = assay mode: Radical Cure (treated from day 5 post-infection for 3 days), fixed day 8 post-infection
Structure (SMILES),"hypnozoite quantity inhibition [1, 4]","hypnozoite quantity inhibition [1, 5]","schizont net growth area inhibition [2, 4]","schizont net growth area inhibition [2, 5]","hepatic nuclei reduction [3, 4] [%]","hepatic nuclei reduction [3, 5] [%]"
O=C(NCc1ccoc1)N1CCN(Cc2ccc3c(c2)OCO3)CC1,-78,-62,7.9,-130,0,2
COc1ccc(C=C2SC(Nc3ccccc3)=NC2=O)cc1,-1.3,51.9,-21.4,1.8,-17,2
Cc1ccc(Nc2nc(N)c3ccccc3n2)cc1Cl,21,38.2,-160,-4.7,0,-7
Cc1ccc2[nH]c(C3CCCNC3)c(-c3ccncc3)c2c1 (stereo not drawn),5,-23,52.6,-104,-3,-5
COc1cc(-c2nc(-c3ccccc3)c(-c3ccccc3)[nH]2)cc(OC)c1O,3.8,-17.1,38.3,-59.8,1,-13
FC(F)(F)c1cc(C(F)(F)F)c2ccc3nc(-c4nnco4)cn3c2n1,-13,-10,49.1,-23.8,-6,-12
COc1ccc(-c2cnc3ccc(NCc4ccc(S(N)(=O)=O)cc4)nn23)cn1,78,26,106,99.7,-11,-1
CCN(CC)c1cc(C)c2cc(NC(=O)c3cccc(OC)c3)ccc2n1,0,26.5,16.5,12.2,4,-10
COc1ccc(C(=O)NC(c2ccccc2Cl)c2cc(Cl)c3cccnc3c2O)cc1 (stereo not drawn),-16.4,34.6,96.4,43.2,1,-6
O=C(NC1CCN(c2ccnc3ccccc23)C1)c1cccc(C(F)(F)F)c1 (stereo not drawn),-2,31,58,11.2,-7,-1
Cc1ccc(Nc2nc(-c3ccccn3)cs2)cc1,20.9,18.3,23.5,-26.1,-4,-2
c1ccc2c(c1)CN(CC1CC1)CC1(CCN(Cc3c[nH]c4cnccc34)CC1)O2,-13,-20,-4.3,57.6,-4,0
Cc1cc(C)c2cc(C(=O)NC3CCCCCCC3)[nH]c2c1,3,-78,-30.5,-128,3,-6
c1cncc(NCc2ccc(-c3cc4ccncc4cc3OC3CCNCC3)s2)c1,14,-130,35.8,-131,-1,-11
CNCCCNc1ccnc2cc(Cl)ccc12,-25.8,54.2,-35.1,43.5,-9,4
CCCCOC(=O)c1ccc(Nc2cc(C)nc3ccc(OC)cc23)cc1,-15.2,-14.4,-3.4,-80.9,2,-14
CC(C)(C)CN1C(=O)C(c2ccccc2)(c2ccccc2)N=C1N,-51,-25,8.9,-9,11,-6
Nc1nc(Nc2cccc(F)c2)nc2ccccc12,11.4,29.2,6.9,47.7,-2,-4
CN(C)CCNc1cc(-c2ccccc2)nc2ccccc12,-1.3,51.9,-87.6,34.9,-2,6
COc1ccc(-c2cc3c(SCC(=O)Nc4cc(C(F)(F)F)ccc4Cl)nccn3n2)cc1,30.3,21,-12,18.6,12,-1
Cc1cc(NC(=O)c2ccc(S(=O)(=O)N(Cc3ccccc3)C(C)C)cc2)no1,-15,-29,-57.4,32.3,-6,13
Oc1ccccc1CNCC12CC3CC(CC(C3)C1)C2,-8.7,45,-71.6,7.9,-16,8
O=C(NC1CC1)c1ccc(N2CCC(Cc3ccccc3)CC2)nc1,32,-25,21.8,-77.2,11,2

# Filtered by structure, those above with four or more nitrogen atoms.
Structure (SMILES),"hypnozoite quantity inhibition [1, 4]","hypnozoite quantity inhibition [1, 5]","schizont net growth area inhibition [2, 4]","schizont net growth area inhibition [2, 5]","hepatic nuclei reduction [3, 4] [%]","hepatic nuclei reduction [3, 5] [%]"
Cc1ccc(Nc2nc(N)c3ccccc3n2)cc1Cl,21,38.2,-160,-4.7,0,-7
FC(F)(F)c1cc(C(F)(F)F)c2ccc3nc(-c4nnco4)cn3c2n1,-13,-10,49.1,-23.8,-6,-12
COc1ccc(-c2cnc3ccc(NCc4ccc(S(N)(=O)=O)cc4)nn23)cn1,78,26,106,99.7,-11,-1
c1ccc2c(c1)CN(CC1CC1)CC1(CCN(Cc3c[nH]c4cnccc34)CC1)O2,-13,-20,-4.3,57.6,-4,0
c1cncc(NCc2ccc(-c3cc4ccncc4cc3OC3CCNCC3)s2)c1,14,-130,35.8,-131,-1,-11
Nc1nc(Nc2cccc(F)c2)nc2ccccc12,11.4,29.2,6.9,47.7,-2,-4
COc1ccc(-c2cc3c(SCC(=O)Nc4cc(C(F)(F)F)ccc4Cl)nccn3n2)cc1,30.3,21,-12,18.6,12,-1

# 2 compounds picked at random from those above, as already listed:
Structure (SMILES),"hypnozoite quantity inhibition [1, 4]","hypnozoite quantity inhibition [1, 5]","schizont net growth area inhibition [2, 4]","schizont net growth area inhibition [2, 5]","hepatic nuclei reduction [3, 4] [%]","hepatic nuclei reduction [3, 5] [%]"
CCCCOC(=O)c1ccc(Nc2cc(C)nc3ccc(OC)cc23)cc1,-15.2,-14.4,-3.4,-80.9,2,-14
Cc1cc(C)c2cc(C(=O)NC3CCCCCCC3)[nH]c2c1,3,-78,-30.5,-128,3,-6

# Next part

Structure (SMILES),"hypnozoite quantity inhibition [1, 4]","hypnozoite quantity inhibition [1, 5]","schizont net growth area inhibition [2, 4]","schizont net growth area inhibition [2, 5]","hepatic nuclei reduction [3, 4] [%]","hepatic nuclei reduction [3, 5] [%]"
COc1cccc(Nc2nc(NCCO)c3ccccc3n2)c1,-37.9,-0.8,-79.8,-30.8,-2,-5
CCOc1ccc(N2C(N)=NC(N)=NC2(C)C)cc1,14.5,-0.8,41,41.9,2,-14
Cc1ccc(S(=O)(=O)Nc2ccc(CN3CCN(C(=O)c4cccc(C#N)c4)CC3)cc2)cc1,1,27,-6.8,-34.4,3,2
CC(C)OCc1cc(CN2CCN(c3cccc(Cl)c3)CC2)c(O)c2ncccc12,-3.8,-8.9,-11.7,-14.7,-1,-8
O=C(Nc1nnc(-c2ccc(Cl)s2)o1)c1ccc(Cl)s1,-71,1,11.2,-57.1,-1,10
CC(C)(C)c1cc(C(=O)Nc2cccnc2)cc(C(=O)Nc2cccnc2)c1,-27,-36,33.9,-97.5,-7,0
O=C(NNc1cc(N2CCCC2)nc(N2CCCC2)n1)c1ccccc1,-12.6,-11.7,33.6,40.8,-1,-13
COc1ccc2c(c1)C1(Nc3ccccc3-c3nc4ccccc4n31)C(=O)N2 (stereo not drawn),19,-63.4,67.9,-107,-6,-13
COc1ccc(-c2cc(NC(=O)c3ccc(F)cc3Cl)ccc2OC)cc1,-83,-38,2.4,-234,-3,8
Oc1ccccc1CN1CCC2(CCCN(Cc3ccccc3F)C2)C1 (stereo not drawn),91,42.8,100,-23.9,1,-11
O=C1Nc2ccc(Br)cc2C12NCCc1c2[nH]c2ccccc12 (stereo not drawn),-68,-28,39.7,-218,-3,4
CCCn1c(=N)c(C(=O)NC2CCCCC2)cc2c(=O)n3cccc(C)c3nc21,-4.3,35.9,-20.7,51.6,-7,3
COc1ccc(C2(C(=O)Nc3ccc(Br)cc3)CCCC2)cc1,2,-8,46.9,-58.2,-7,-1
CC(C)C(NC(=O)Cc1cccc2ccccc12)C(=O)Nc1cccc(C#N)c1 (stereo not drawn),13,-10,17.6,-140,-6,0
O=C(C1CCN(c2cc(-n3cccc3)ncn2)CC1)N1CCc2ccccc2C1,24,11,15.3,-53.9,1,-4
O=C(Nc1nc(-c2ccccn2)cs1)c1ccccc1Br,15.1,40.5,87.2,35,-3,-3
CC1Cc2c([nH]c3cc(Cl)c(F)cc23)C2(N1)C(=O)Nc1ccc(Cl)cc12 (stereo not drawn),-42,-1,28.5,67.9,-9,-2
CCOC(=O)C1=CN(C)C=C(C(=O)OCC)C1c1cc(Br)c(OCC)c(OC)c1,-43.7,42.7,-26.5,40.2,-12,-3
Cc1cc(C)cc(COc2ccc3c(C)c(CCC(=O)O)c(=O)oc3c2C)c1,-23,-7,51.4,-101,-9,-6
Nc1ncnc2c1ncn2C[C@@H](O)[C@@H](O)C(=O)O,24,-33,5.6,-54.5,-3,-4
CS(=O)(=O)N1CCC(Cn2nc(Cc3cccc4ccccc34)c3c(N)ncnc32)CC1,60,-25,33.8,27.9,26,6
CC(C)=CCC/C(C)=C\CNCCNC1C2CC3CC(C2)CC1C3 (stereo not drawn),-14,-28,5.5,11.5,-12,-8
Cc1ccc2cc(C3NC(=O)c4ccccc4N3)c(Cl)nc2c1 (stereo not drawn),20,-20,20.7,-44.9,4,8

Structure (SMILES),"hypnozoite quantity inhibition [1, 4]","hypnozoite quantity inhibition [1, 5]","schizont net growth area inhibition [2, 4]","schizont net growth area inhibition [2, 5]","hepatic nuclei reduction [3, 4] [%]","hepatic nuclei reduction [3, 5] [%]"
COc1ccc(Br)cc1C1Nc2ccc3ccccc3c2C2=C1C(=O)CC(c1ccccc1)C2 (stereo not drawn),-51.9,-0.8,-36.9,35.9,-9,-7
CC(=O)Nc1nnc(SCc2c(C)cc(C(C)(C)C)cc2C)s1,4.4,34.6,40.2,-14.3,4,-8
CC(C)(C)C1CCC(CC2=C(O)C(=O)c3ccccc3C2=O)CC1 (stereo not drawn),-51,-44,67.2,12.6,-4,-3
O=C(Nc1cccc(C(F)(F)F)c1)c1cc(Cl)ccc1O,-24.3,26.7,36.8,-14.2,-1,3
O=CN(O)CCCP(=O)(O)O,-27,34,34.1,9.4,-4,5
FC(F)(F)c1ccc(Nc2nnnc3ccccc23)cc1,-39.2,15.3,87.5,-16.4,5,11
CCC(Sc1nc2ccccc2o1)C(=O)Nc1nccs1 (stereo not drawn),-58,1,-37.3,-106,-5,-2
COC(=O)c1cccc2oc(-c3cccc(OC)c3NC(=O)c3cc(-c4ccccc4)on3)nc12,-5,43,-70.6,55.2,-7,-1
Cc1nn(C)cc1C(C)Nc1nncc(-c2ccc(C(F)(F)F)cc2)n1 (stereo not drawn),-61,47,48.8,73.6,-6,-4
O=C(NCc1ccco1)C1CCN(S(=O)(=O)c2ccc(Br)cc2)CC1,16.5,33.6,-11.6,-14.7,5,10
Cc1nc2ccccn2c1C(=O)NCc1ccc(Cl)cc1,8,-25,15.8,-82.6,-3,-6
CC(NCc1ccccc1)c1cc(Cl)ccc1O (stereo not drawn),6.3,29.2,-71.6,-30.6,-4,-5
CC1(C)c2nc(-c3ccc(F)cc3)c(Nc3ccc(F)cc3)n2CCN1C(=O)CN,92,-1,97,94.2,3,-6
COc1ccccc1CNC(=O)C1c2ccccc2C(=O)N(CC(C)C)C1c1cccs1 (stereo not drawn),-16.4,-17.1,4.7,-36.2,12,-1
COc1ccc(C(=O)C(CCC(CNC(C)(C)C)C(=O)c2ccc(OC)cc2)CNC(C)(C)C)cc1 (stereo not drawn),-2,67.9,42.9,-69.2,-3,10
CN(C)c1ccc(C(O)(c2ccc(N(C)C)cc2)c2ccc(N(C)C)cc2)cc1,70.1,-6.2,95.6,57.8,61,10
CCN(CC)CCCCCCNc1cc(OC)cc2c(C)ccnc12,-3.5 ± 5,-15.5 ± 25,61.2 ± 6.7,6.2 ± 9.1,0 ± 1.4,-6 ± 1.4
CN(C)Cc1ccccc1CNc1ccnc2cc(Cl)ccc12,-1,41,49.4,21.2,-5,-9
Cc1ccc2nc(C)c(-c3ccn(Cc4ccccc4)n3)n2c1,-112,-43,-67,-26.9,-12,-7
Cc1cc(CCCOc2c(C)cc(-c3noc(C(F)(F)F)n3)cc2C)on1,-68,-22,-43.3,-242,-6,-3
c1ccc(Oc2ccc(-c3cc(CN4CCOCC4)[nH]n3)cc2)cc1,-38,-5,-64.2,12,-10,3
Clc1ccc(CCNc2cc(-c3ccccc3)nc3ncnn23)cc1,15,-20,33.8,-29.4,0,-11
